# Test: Ninhydrin test for L-cysteine grafted through the catechol linker
# Format: physicochemical
# Conditions: then L-cysteine in 10× PBS overnight, 90° C. 10 minutes
smiles,measurement,setting,value
"O=C(CI)c1ccc(O)c(O)c1 [4-iodoacetylcatechol, 4-(iodoacetyl)catechol]",appearance after 1% aqueous ninhydrin treatment,activated glass grafted with linker,Purple-blue spots appeared
same,appearance after 1% aqueous ninhydrin treatment,filter paper grafted with linker,purple
